This assay addresses carrier free RGMc (R&D Systems) (human) (UniProt Q6ZVN8). As to the kind of experiment: direct EIA on coated carrier-free RGMc (Table 6).

Sequences of proteins named here, by UniProt entry; tags and fusion partners are left off. Residues count along the entry.
UniProt Q6ZVN8, residues 36-400: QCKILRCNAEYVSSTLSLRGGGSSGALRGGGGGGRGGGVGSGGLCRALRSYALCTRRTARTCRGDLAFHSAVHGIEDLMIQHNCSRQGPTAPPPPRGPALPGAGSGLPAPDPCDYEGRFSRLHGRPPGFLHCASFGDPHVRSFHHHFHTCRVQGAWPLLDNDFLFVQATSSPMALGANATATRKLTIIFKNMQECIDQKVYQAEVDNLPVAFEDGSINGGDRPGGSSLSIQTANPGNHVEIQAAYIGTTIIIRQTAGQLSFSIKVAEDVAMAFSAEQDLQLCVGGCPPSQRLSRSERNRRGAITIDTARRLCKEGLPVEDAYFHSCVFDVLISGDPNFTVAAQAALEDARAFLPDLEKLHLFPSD

Positions count from the first letter of the chain named. Results are given in words; binding and its absence hold for the method and conditions named. Some binding calls cover weakened binding; strength is not graded here.

B1: 1A-2860-475 (antibody, V domains shown)
VH: DVLLQESGPDLVKPSQSLSLTCTVTGYSISSGYSWHWIRQFPGNKLEWMAYIHYTGNTNYNPSLKSRISITRDTSKNQFFLHLNSVTTEDTATYYCALFGLSGFWGQGTLVTVSA
VL: DVLMTQTPLSLPVSLGDQASISCRSSQTIVHSNGNTYLDWYLQKPGQSPKVLIYKVSNRFSGVPDRFSGSGSGTDFTLKISRVEAEDLGVYFCLQGSHVPWTFGGGTQLEIKR
For the molecule B1, the binding entry is given as “binds”.

B2: 1B-3363-715 (antibody, V domains shown)
VH: DVQLQESGPDLVKPSQSLSLTCTVTGYSITSGYSWHWIRQFPGNKLEWMGYIHYSGNTDYNPSLKSRISFTRDTSKNQFFLQLNSVTTEDTATYFCAIGTGPWGQGTTLTVSS
VL: B1 VL with T28N, N35H, D39E, V51L, F92Y, L94F, Q108K
For the molecule B2, the binding entry was “binds”.

These data come from patent US20130330359A1.
